Each structure is given as a SMILES string. The list is a part of this screen's results and no random one: its compounds were picked by chemical class. Other doses and runs of a compound may be missing. T/C gives the treated animals as a percentage of the vehicle group. Where survival is the endpoint, the PubChem record calls one and a half times the control and up active, and a quarter to a half above the control has no call in these data; cut-offs in other NCI protocols can differ. Some entries show no survivor count and are marked so; the dose need not have been tolerated. Schedule codes are those of the source, taken here to give the interval after Q, in days (D) or hours (H), and the number of doses after X. Some entries were tested several times; the results are listed from low to high.

This assay relates to L1210 leukemia ip in BDF1 mice, survival T/C. The experiment in a line: NCI In Vivo Anticancer Drug Screen. Data for tumor model L1210 Leukemia (intraperitoneal) in B6D2F1 (BDF1) mice. The following applies: T/C endpoint: mean survival time, higher T/C = longer survival.
Setting [1] is: dose: 25.0 mg/kg/injection, schedule: Q04DX003 (ip), vehicle: saline.
[2] abbreviates: dose: 50.0 mg/kg/injection, schedule: Q04DX003 (ip), vehicle: saline.
[3] abbreviates: dose: 100.0 mg/kg/injection, schedule: Q04DX003 (ip), vehicle: saline.
Setting [4] is: dose: 12.5 mg/kg/injection, schedule: Q04DX003 (ip), vehicle: Klucel (hydroxypropylcellulose) (HPC).
Where [5] appears, read: dose: 25.0 mg/kg/injection, schedule: Q04DX003 (ip), vehicle: Klucel (hydroxypropylcellulose) (HPC).
The mark [6] stands for this setting: dose: 50.0 mg/kg/injection, schedule: Q04DX003 (ip), vehicle: Klucel (hydroxypropylcellulose) (HPC).
Where [7] appears, read: dose: 25.0 mg/kg/injection, schedule: Q01DX009 (ip), vehicle: Klucel (hydroxypropylcellulose) (HPC).

Take `ClCCCCC(CCl)NCCCl` (stereo not given): the T/C by setting is: (dose: 12.5 mg/kg/injection, schedule: Q01DX009 (ip), vehicle: saline) 98 [survivor count not shown] and 101 % of control [survivor count not shown]; (dose: 25.0 mg/kg/injection, schedule: Q01DX009 (ip), vehicle: saline) 134 [survivor count not shown] and 141 % of control [survivor count not shown]; under setting [1], 114 % of control [survivor count not shown]; (dose: 33.0 mg/kg/injection, schedule: Q01DX001 (ip), vehicle: saline) 116 % of control [survivor count not shown]; (dose: 50.0 mg/kg/injection, schedule: Q01DX001 (ip), vehicle: saline) 125 % of control [survivor count not shown]; (dose: 50.0 mg/kg/injection, schedule: Q01DX009 (ip), vehicle: saline) 162 [survivor count not shown] and 167 % of control [survivor count not shown]. In addition, the T/C was 113 % of control [survivor count not shown] under setting [2]; 137 [survivor count not shown] and 143 % of control [survivor count not shown] (dose: 75.0 mg/kg/injection, schedule: Q01DX001 (ip), vehicle: saline); 88 % of control [survivor count not shown] (dose: 100.0 mg/kg/injection, schedule: Q01DX009 (ip), vehicle: saline); 133 % of control [survivor count not shown] under setting [3]; 153 % of control [survivor count not shown] (dose: 112.5 mg/kg/injection, schedule: Q01DX001 (ip), vehicle: saline); 109 % of control [survivor count not shown] (dose: 150.0 mg/kg/injection, schedule: Q01DX001 (ip), vehicle: saline). Under “dose: 200.0 mg/kg/injection, schedule: Q04DX003 (ip), vehicle: saline”, the T/C was 153 % of control [survivor count not shown].

With `O=C(OC1CCN(CC2CC2)CC1)C(O)(c1ccccc1)c1ccccc1`, the T/C is 97 % of control [survivor count not shown] under setting [4], 97 % of control [survivor count not shown] under setting [5] and 101 % of control [survivor count not shown] under setting [6].

For `CCOC(=O)CN(CCCl)CCCl`, the T/C runs as follows: (dose: 0.2 mg/kg/injection, schedule: Q01DX010 (ip), vehicle: saline) 93 % of control [survivor count not shown]; (dose: 0.4 mg/kg/injection, schedule: Q01DX010 (ip), vehicle: saline) 100 % of control [survivor count not shown]; (dose: 0.85 mg/kg/injection, schedule: Q01DX010 (ip), vehicle: saline) 107 % of control [survivor count not shown].

As to `CC(C)N(CCCCOC(=O)C(O)(c1ccccc1)c1ccccc1)C(C)C`, the T/C is 102 % of control [survivor count not shown] under setting [1]; 96 % of control [survivor count not shown] under setting [2]; 97 [survivor count not shown] and 98 % of control [survivor count not shown] (dose: 75.0 mg/kg/injection, schedule: Q04DX003 (ip), vehicle: saline).

Take `Cc1cc2nc(CN(CCCl)CCCl)[nH]c2cc1C`: the T/C is, setting by setting: (dose: 3.3 mg/kg/injection, schedule: Q01DX010 (ip), vehicle: carboxymethylcellulose (CMC)) 93 % of control [survivor count not shown]; (dose: 7.5 mg/kg/injection, schedule: Q01DX010 (ip), vehicle: carboxymethylcellulose (CMC)) 90 % of control [survivor count not shown]; (dose: 15.0 mg/kg/injection, schedule: Q01DX010 (ip), vehicle: carboxymethylcellulose (CMC)) 92 % of control [survivor count not shown]; (dose: 30.0 mg/kg/injection, schedule: Q01DX010 (ip), vehicle: carboxymethylcellulose (CMC)) 150 % of control [survivor count not shown]; (dose: 176.0 mg/kg/injection, schedule: Q01DX001 (ip), vehicle: carboxymethylcellulose (CMC)) 127 % of control [survivor count not shown]; (dose: 264.0 mg/kg/injection, schedule: Q01DX001 (ip), vehicle: carboxymethylcellulose (CMC)) 118 % of control [survivor count not shown].

Consider `NN1CCCC(OC(=O)C(O)(c2ccccc2)c2ccccc2)C1` (stereo not given), for which the T/C (dose: 100.0 mg/kg/injection, schedule: Q04DX002 (ip), vehicle: Klucel (hydroxypropylcellulose) (HPC)) was 102 % of control [survivor count not shown]; the T/C (dose: 200.0 mg/kg/injection, schedule: Q04DX002 (ip), vehicle: Klucel (hydroxypropylcellulose) (HPC)) is 97 % of control [survivor count not shown]; the T/C (dose: 400.0 mg/kg/injection, schedule: Q04DX002 (ip), vehicle: Klucel (hydroxypropylcellulose) (HPC)) is 105 % of control [survivor count not shown].

As for `O=C(OC1CCCN(CO)C1)C(O)(c1ccccc1)c1ccccc1` (stereo not given), the T/C was 98 % of control [survivor count not shown] under setting [1], 104 % of control [survivor count not shown] under setting [2] and 96 % of control [survivor count not shown] under setting [3].

Consider `CN1CCCC(COC(=O)C(O)(c2ccccc2)c2ccccc2)C1` (stereo not given), for which the T/C under setting [7] is 94 % of control [survivor count not shown]; the T/C under setting [5] was 103 % of control [survivor count not shown]; the T/C (dose: 50.0 mg/kg/injection, schedule: Q01DX009 (ip), vehicle: Klucel (hydroxypropylcellulose) (HPC)) was 94 % of control [survivor count not shown]; the T/C under setting [6] was 105 % of control [survivor count not shown].

For `N#CC(C#N)=Cc1ccccc1`, the T/C reads like this: (dose: 1.57 mg/kg/injection, schedule: Q01DX009 (ip), vehicle: Klucel (hydroxypropylcellulose) (HPC)) 105 % of control [survivor count not shown]; (dose: 1.57 mg/kg/injection, schedule: Q04DX003 (ip), vehicle: Klucel (hydroxypropylcellulose) (HPC)) 123 % of control [survivor count not shown]; (dose: 3.13 mg/kg/injection, schedule: Q01DX009 (ip), vehicle: Klucel (hydroxypropylcellulose) (HPC)) 110 % of control [survivor count not shown]; (dose: 3.13 mg/kg/injection, schedule: Q04DX003 (ip), vehicle: Klucel (hydroxypropylcellulose) (HPC)) 113 % of control [survivor count not shown]; (dose: 6.25 mg/kg/injection, schedule: Q01DX009 (ip), vehicle: Klucel (hydroxypropylcellulose) (HPC)) 95 [survivor count not shown] and 105 % of control [survivor count not shown]; (dose: 6.25 mg/kg/injection, schedule: Q04DX003 (ip), vehicle: Klucel (hydroxypropylcellulose) (HPC)) 108 % of control [survivor count not shown]. Also, the T/C runs as follows: (dose: 12.5 mg/kg/injection, schedule: Q01DX009 (ip), vehicle: Klucel (hydroxypropylcellulose) (HPC)) 94 [survivor count not shown] and 113 % of control [survivor count not shown]; under setting [4], 111 % of control [survivor count not shown]; under setting [7], 94 % of control [survivor count not shown]; (dose: 50.0 mg/kg/injection, schedule: Q01DX001 (ip), vehicle: other) 104 % of control [survivor count not shown]; (dose: 100.0 mg/kg/injection, schedule: Q01DX001 (ip), vehicle: other) 102 % of control [survivor count not shown]; (dose: 100.0 mg/kg/injection, schedule: Q04DX003 (ip), vehicle: Klucel (hydroxypropylcellulose) (HPC)) 93 % of control [survivor count not shown]. Besides, the T/C (dose: 200.0 mg/kg/injection, schedule: Q04DX003 (ip), vehicle: Klucel (hydroxypropylcellulose) (HPC)) is 93 % of control [survivor count not shown].

For the molecule `CN1C2CCC1CC(OC(=O)C(O)(c1ccccc1)c1ccccc1)C2` (stereo not given), the T/C is 97 % of control [survivor count not shown] (dose: 38.0 mg/kg/injection, schedule: Q04DX003 (ip), vehicle: other); 102 % of control [survivor count not shown] (dose: 75.0 mg/kg/injection, schedule: Q01DX001 (ip), vehicle: other); 105 % of control [survivor count not shown] (dose: 75.0 mg/kg/injection, schedule: Q04DX003 (ip), vehicle: other); 104 % of control [survivor count not shown] (dose: 150.0 mg/kg/injection, schedule: Q01DX001 (ip), vehicle: other).

The values above are taken from PubChem BioAssay AID248 (DTP/NCI, 2004).
